# Results reported in the supplement of paper PMC4604168 (melanoma cell lines).
# The list shows a part of the results. Single values are uncertain, as repeats are few or missing.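 Imaging used 1,536-well plates; nuclei positive for cleaved PARP by antibody were divided by total DNA-stained nuclei to yield the apoptosis fraction. Doses for screening kept most cells viable, and cell lines differ markedly in resting and induced cleaved-PARP levels.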
# Experiments:
# Assay in all cases: cleaved PARP positive nuclei fraction relative to DMSO control; melanoma cells; higher = more apoptosis
# Conditions in all cases: library dose: low library concentration; 72 h
# 501Mel = test system: 501Mel
# A101D = test system: A101D
# A2058 = test system: A2058
# A375 = test system: A375
# C32 = test system: C32
# CBRC008 = test system: CBRC008 (line from a melanoma biopsy)
# CBRC013 = test system: CBRC013 (line from a melanoma biopsy)
# CBRC014 = test system: CBRC014 (line from a melanoma biopsy)
# CBRC016 = test system: CBRC016 (line from a melanoma biopsy)
# CBRC017 = test system: CBRC017 (line from a melanoma biopsy)
# COLO792 = test system: COLO792
# COLO800 = test system: COLO800
# COLO829 = test system: COLO829
# G361 = test system: G361
# IPC-298 = test system: IPC-298
# IST-MEL1 = test system: IST-MEL1
# LB2518-MEL = test system: LB2518-MEL
# LOXIMVI = test system: LOXIMVI
# MEL-HO = test system: MEL-HO
Structure (SMILES),cleaved PARP positive nuclei fraction (501Mel),cleaved PARP positive nuclei fraction (A101D),cleaved PARP positive nuclei fraction (A2058),cleaved PARP positive nuclei fraction (A375),cleaved PARP positive nuclei fraction (C32),cleaved PARP positive nuclei fraction (CBRC008),cleaved PARP positive nuclei fraction (CBRC013),cleaved PARP positive nuclei fraction (CBRC014),cleaved PARP positive nuclei fraction (CBRC016),cleaved PARP positive nuclei fraction (CBRC017),cleaved PARP positive nuclei fraction (COLO792),cleaved PARP positive nuclei fraction (COLO800),cleaved PARP positive nuclei fraction (COLO829),cleaved PARP positive nuclei fraction (G361),cleaved PARP positive nuclei fraction (IPC-298),cleaved PARP positive nuclei fraction (IST-MEL1),cleaved PARP positive nuclei fraction (LB2518-MEL),cleaved PARP positive nuclei fraction (LOXIMVI),cleaved PARP positive nuclei fraction (MEL-HO)
"COc1ccc(C2=N[C@@H](c3ccc(Cl)cc3)[C@@H](c3ccc(Cl)cc3)N2C(=O)N2CCNC(=O)C2)c(OC(C)C)c1 [Nutlin-3] + O=C(CCCCCCC(=O)Nc1ccccc1)NO [vorinostat] (first compound 0.1 µM, partner dose 0.08 µM)",172%,45%,137%,66.7%,42.6%,52.6%,107%,92.1%,66.2%,109%,74%,115%,96.2%,47.2%,63.7%,35.1%,129%,50.1%,226%
"CN(c1ncccc1CNc1nc(Nc2ccc3c(c2)CC(=O)N3)ncc1C(F)(F)F)S(C)(=O)=O + CC(C)(C)c1cnc(CSc2cnc(NC(=O)C3CCNCC3)s2)o1 [SNS-032] (first compound 0.08 µM, partner dose 0.01 µM)",254%,167%,212%,30.3%,122%,81.9%,121%,87.9%,90.1%,117%,135%,103%,303%,119%,68.5%,145%,111%,52.5%,42.7%
"Cn1sc(=O)n(Cc2ccccc2)c1=O + CC(C)(C)c1cnc(CSc2cnc(NC(=O)C3CCNCC3)s2)o1 [SNS-032] (first compound 0.4 µM, partner dose 0.01 µM)",106%,160%,49.5%,116%,107%,81.5%,150%,89.5%,123%,133%,164%,143%,92.8%,174%,59.9%,52.3%,105%,54.9%,70.2%
"C[C@]1(O)C[C@@H](c2nc(-c3ccc4ccc(-c5ccccc5)nc4c3)c3c(N)nccn32)C1 + Cc1ccc(NC(=O)c2cccc(N(C)C)c2)cc1NC(=O)c1ccc(O)cc1 [ZM336372] (first compound 0.4 µM, partner dose 2 µM)",93.7%,46.4%,52.3%,46%,114%,139%,100%,102%,100%,119%,131%,105%,38.4%,133%,22.7%,137%,41.1%,102%,82.7%
"C[C@@H](N)c1ccc(C(=O)Nc2ccnc3[nH]ccc23)cc1 + O=C(O)c1ccc(-c2c[nH]c3ncc(-c4ccccc4)cc23)cc1C1CCCC1 [GSK650394] (first compound 0.4 µM, partner dose 0.16 µM)",97%,44.1%,170%,40.4%,294%,197%,97.6%,108%,268%,122%,89.2%,106%,78.1%,86.7%,89%,84.1%,189%,55.5%,101%
"NC1(c2ccc(-c3nc4ccn5c(=O)[nH]nc5c4cc3-c3ccccc3)cc2)CCC1 + Cn1cncc1[C@@](N)(c1ccc(Cl)cc1)c1ccc2c(c1)c(-c1cccc(Cl)c1)cc(=O)n2C [tipifarnib] (first compound 0.4 µM, partner dose 0.01 µM)",232%,122%,91.2%,92.8%,40.3%,250%,150%,92.8%,213%,302%,370%,85.9%,160%,149%,94.8%,153%,240%,202%,83%
"Cn1cnc2c(F)c(Nc3ccc(Br)cc3Cl)c(C(=O)NOCCO)cc21 [selumetinib] + O=C(Nc1cccc(Cl)c1)Nc1ncc(CCNc2ncnc3ccsc23)s1 [SNS314] (first compound 0.015 µM, partner dose 0.0008 µM)",268%,54.2%,177%,105%,97.8%,27%,165%,80%,88.4%,126%,95.6%,108%,41.4%,95.4%,160%,64.2%,36.1%,28.1%,66.4%
"CN(c1ncccc1CNc1nc(Nc2ccc3c(c2)CC(=O)N3)ncc1C(F)(F)F)S(C)(=O)=O + NCC(=O)Nc1ccc(-n2nc(C(F)(F)F)cc2-c2ccc3c(ccc4ccccc43)c2)cc1 [OSU03012] (first compound 0.08 µM, partner dose 1 µM)",194%,90.9%,357%,1030%,79.5%,231%,135%,111%,160%,87.5%,97.7%,186%,140%,84.9%,69.9%,106%,105%,206%,43.4%
"CCCCCCCCc1ccc(CCC(N)(CO)CO)cc1 [fingolimod] + NC(=O)Nc1cc(-c2cccc(F)c2)sc1C(=O)N[C@H]1CCCNC1 [AZD7762] (first compound 2 µM, partner dose 0.02 µM)",146%,162%,23%,2180%,348%,115%,73.2%,162%,97.3%,105%,78.9%,105%,176%,78.1%,114%,104%,121%,93.1%,215%
"CCN(CC)CCNC(=O)c1c(C)[nH]c(/C=C2\C(=O)Nc3ccc(F)cc32)c1C [sunitinib] + COc1cc(Nc2ncc(F)c(Nc3ccc4c(n3)NC(=O)C(C)(C)O4)n2)cc(OC)c1OC [Tamatinib] (first compound 0.4 µM, partner dose 0.4 µM)",106%,188%,159%,96.2%,78.8%,293%,304%,83.7%,97.8%,90%,351%,159%,113%,85.7%,61.3%,50%,67.5%,316%,82.5%
"CCN(CC)CCNC(=O)c1c(C)[nH]c(/C=C2\C(=O)Nc3ccc(F)cc32)c1C [sunitinib] + Cn1cncc1[C@@](N)(c1ccc(Cl)cc1)c1ccc2c(c1)c(-c1cccc(Cl)c1)cc(=O)n2C [tipifarnib] (first compound 0.4 µM, partner dose 0.01 µM)",106%,190%,57.2%,673%,108%,236%,231%,87.5%,129%,122%,97.1%,244%,115%,108%,50.8%,159%,133%,113%,74.1%
"CC1(C)CCC(c2ccc(Cl)cc2)=C(CN2CCN(c3ccc(C(=O)NS(=O)(=O)c4ccc(N[C@H](CCN5CCOCC5)CSc5ccccc5)c(S(=O)(=O)C(F)(F)F)c4)cc3)CC2)C1 + O=C(O)c1ccc(-c2c[nH]c3ncc(-c4ccccc4)cc23)cc1C1CCCC1 [GSK650394] (first compound 0.4 µM, partner dose 0.16 µM)",93.2%,279%,235%,312%,229%,276%,181%,704%,351%,383%,792%,87.1%,57.9%,68.6%,44.1%,130%,111%,92.3%,79%
"NC1(c2ccc(-c3nc4ccn5c(=O)[nH]nc5c4cc3-c3ccccc3)cc2)CCC1 + CN(C)S(=O)(=O)c1ccc2c(c1)/C(=C/c1cc3c([nH]1)CCCC3)C(=O)N2 [SU6656] (first compound 0.4 µM, partner dose 0.4 µM)",178%,72.2%,149%,61.2%,306%,100%,99.6%,73.6%,32%,90.4%,163%,215%,52.7%,132%,92.4%,54.3%,195%,12.8%,86.8%
"CCCCCCCCc1ccc(CCC(N)(CO)CO)cc1 [fingolimod] + CN(NC(=O)CC(=O)NN(C)C(=S)c1ccccc1)C(=S)c1ccccc1 [STA4783] (first compound 2 µM, partner dose 0.006 µM)",470%,103%,174%,2080%,250%,740%,117%,384%,226%,133%,83.6%,108%,163%,91%,101%,307%,25%,49.3%,170%
"CCN(CC)CCNC(=O)c1c(C)[nH]c(/C=C2\C(=O)Nc3ccc(F)cc32)c1C [sunitinib] + O=C(Nc1cccc(Cl)c1)Nc1ncc(CCNc2ncnc3ccsc23)s1 [SNS314] (first compound 0.4 µM, partner dose 0.0008 µM)",83.8%,97.2%,101%,114%,54.1%,96.5%,342%,312%,63.2%,80.8%,82.9%,175%,120%,138%,193%,62.8%,45.1%,29%,67.2%
"CC(=O)O[C@@]12CO[C@@H]1C[C@H](O)[C@@]1(C)C(=O)[C@H](O)C3=C(C)[C@@H](OC(=O)[C@H](O)[C@@H](NC(=O)OC(C)(C)C)c4ccccc4)C[C@@](O)([C@@H](OC(=O)c4ccccc4)[C@H]21)C3(C)C [Docetaxel] + C=CCn1c(=O)c2cnc(Nc3ccc(N4CCN(C)CC4)cc3)nc2n1-c1cccc(C(C)(C)O)n1 [MK1775] (first compound 0.0001 µM, partner dose 0.02 µM)",384%,125%,8180%,5360%,438%,534%,67.4%,134%,365%,155%,432%,178%,144%,205%,372%,79.1%,144%,34.1%,239%
"CCCCCCCCc1ccc(CCC(N)(CO)CO)cc1 [fingolimod] + OCCn1cc(-c2cnc3nnn(Cc4ccc5ncccc5c4)c3n2)cn1 [PF04217903] (first compound 2 µM, partner dose 1 µM)",56.7%,79.5%,53%,473%,84.5%,158%,90.4%,97.1%,72.7%,99%,103%,65.7%,115%,73.2%,59.8%,93.4%,49.8%,37%,47.5%

# Some of the entries so far, bar-delimited:
Structure (SMILES) | cleaved PARP positive nuclei fraction (501Mel) | cleaved PARP positive nuclei fraction (A101D) | cleaved PARP positive nuclei fraction (A2058) | cleaved PARP positive nuclei fraction (A375) | cleaved PARP positive nuclei fraction (C32) | cleaved PARP positive nuclei fraction (CBRC008) | cleaved PARP positive nuclei fraction (CBRC013) | cleaved PARP positive nuclei fraction (CBRC014) | cleaved PARP positive nuclei fraction (CBRC016) | cleaved PARP positive nuclei fraction (CBRC017) | cleaved PARP positive nuclei fraction (COLO792) | cleaved PARP positive nuclei fraction (COLO800) | cleaved PARP positive nuclei fraction (COLO829) | cleaved PARP positive nuclei fraction (G361) | cleaved PARP positive nuclei fraction (IPC-298) | cleaved PARP positive nuclei fraction (IST-MEL1) | cleaved PARP positive nuclei fraction (LB2518-MEL) | cleaved PARP positive nuclei fraction (LOXIMVI) | cleaved PARP positive nuclei fraction (MEL-HO)
COc1ccc(C2=N[C@@H](c3ccc(Cl)cc3)[C@@H](c3ccc(Cl)cc3)N2C(=O)N2CCNC(=O)C2)c(OC(C)C)c1 [Nutlin-3] + O=C(CCCCCCC(=O)Nc1ccccc1)NO [vorinostat] (first compound 0.1 µM, partner dose 0.08 µM) | 172% | 45% | 137% | 66.7% | 42.6% | 52.6% | 107% | 92.1% | 66.2% | 109% | 74% | 115% | 96.2% | 47.2% | 63.7% | 35.1% | 129% | 50.1% | 226%
CN(c1ncccc1CNc1nc(Nc2ccc3c(c2)CC(=O)N3)ncc1C(F)(F)F)S(C)(=O)=O + CC(C)(C)c1cnc(CSc2cnc(NC(=O)C3CCNCC3)s2)o1 [SNS-032] (first compound 0.08 µM, partner dose 0.01 µM) | 254% | 167% | 212% | 30.3% | 122% | 81.9% | 121% | 87.9% | 90.1% | 117% | 135% | 103% | 303% | 119% | 68.5% | 145% | 111% | 52.5% | 42.7%
